Consider one molecule from publication PMC10933344, “A lncRNA Dleu2-encoded peptide relieves autoimmunity by facilitating Smad3-mediated Treg induction” (EMBO Reports, 2024).

Chains of the proteins cited; added tags and fusions are not shown.
UniProt Q8BUN5: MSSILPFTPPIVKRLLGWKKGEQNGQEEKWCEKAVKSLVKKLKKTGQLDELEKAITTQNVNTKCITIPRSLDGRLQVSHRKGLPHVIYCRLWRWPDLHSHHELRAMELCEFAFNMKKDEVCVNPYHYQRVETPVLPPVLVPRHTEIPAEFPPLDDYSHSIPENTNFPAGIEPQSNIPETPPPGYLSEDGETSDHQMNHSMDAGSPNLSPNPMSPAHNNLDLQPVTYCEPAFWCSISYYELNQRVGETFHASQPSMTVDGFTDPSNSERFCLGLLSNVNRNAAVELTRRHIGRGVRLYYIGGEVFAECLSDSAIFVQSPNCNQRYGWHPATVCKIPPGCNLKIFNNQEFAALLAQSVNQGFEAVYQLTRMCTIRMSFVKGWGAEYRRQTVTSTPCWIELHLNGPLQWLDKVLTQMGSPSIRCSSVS

The target of this assay is SMAD Family Member 3 (Smad3), endogenous (mouse (endogenous in EL4 and mouse CD4+ T cells)) (UniProt Q8BUN5). Put plainly: affinity purification with mass spectrometry; free Dleu2-17aa in excess as competitor of Biotin-Dleu2-17aa for Smad3 of the cell lysate; streptavidin-agarose, LC-MS/MS; only the binder purified.

Results are given in words; binding and its absence hold for the method and conditions named. In cells and extracts the contact can be indirect. Here binding means that the protein was enriched with, or labelled near, the bait; the list need not be complete.

B1: Dleu2-17aa, free (unlabelled) (peptide)
peptide: MLGRRARRRGRGRRRPA
For the molecule B1, the binding result is “binds”.
